Here are results for 2 substances from doi:10.1101/2025.10.30.685591.

Sequences of proteins named here, by UniProt entry; tags and fusion partners are left off.
UniProt Q9D0L8: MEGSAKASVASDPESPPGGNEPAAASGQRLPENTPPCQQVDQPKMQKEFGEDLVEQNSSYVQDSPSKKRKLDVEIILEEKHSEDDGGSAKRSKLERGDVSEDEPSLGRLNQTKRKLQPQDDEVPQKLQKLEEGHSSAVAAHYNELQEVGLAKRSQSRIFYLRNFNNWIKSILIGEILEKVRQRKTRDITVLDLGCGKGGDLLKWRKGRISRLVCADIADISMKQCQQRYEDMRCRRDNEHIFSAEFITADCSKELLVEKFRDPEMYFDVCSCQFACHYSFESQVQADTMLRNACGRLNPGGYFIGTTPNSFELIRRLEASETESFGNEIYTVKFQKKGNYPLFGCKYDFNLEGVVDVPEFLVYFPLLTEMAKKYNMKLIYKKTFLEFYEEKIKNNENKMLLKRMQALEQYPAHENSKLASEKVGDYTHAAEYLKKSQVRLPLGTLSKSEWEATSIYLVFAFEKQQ
UniProt Q6P5F9: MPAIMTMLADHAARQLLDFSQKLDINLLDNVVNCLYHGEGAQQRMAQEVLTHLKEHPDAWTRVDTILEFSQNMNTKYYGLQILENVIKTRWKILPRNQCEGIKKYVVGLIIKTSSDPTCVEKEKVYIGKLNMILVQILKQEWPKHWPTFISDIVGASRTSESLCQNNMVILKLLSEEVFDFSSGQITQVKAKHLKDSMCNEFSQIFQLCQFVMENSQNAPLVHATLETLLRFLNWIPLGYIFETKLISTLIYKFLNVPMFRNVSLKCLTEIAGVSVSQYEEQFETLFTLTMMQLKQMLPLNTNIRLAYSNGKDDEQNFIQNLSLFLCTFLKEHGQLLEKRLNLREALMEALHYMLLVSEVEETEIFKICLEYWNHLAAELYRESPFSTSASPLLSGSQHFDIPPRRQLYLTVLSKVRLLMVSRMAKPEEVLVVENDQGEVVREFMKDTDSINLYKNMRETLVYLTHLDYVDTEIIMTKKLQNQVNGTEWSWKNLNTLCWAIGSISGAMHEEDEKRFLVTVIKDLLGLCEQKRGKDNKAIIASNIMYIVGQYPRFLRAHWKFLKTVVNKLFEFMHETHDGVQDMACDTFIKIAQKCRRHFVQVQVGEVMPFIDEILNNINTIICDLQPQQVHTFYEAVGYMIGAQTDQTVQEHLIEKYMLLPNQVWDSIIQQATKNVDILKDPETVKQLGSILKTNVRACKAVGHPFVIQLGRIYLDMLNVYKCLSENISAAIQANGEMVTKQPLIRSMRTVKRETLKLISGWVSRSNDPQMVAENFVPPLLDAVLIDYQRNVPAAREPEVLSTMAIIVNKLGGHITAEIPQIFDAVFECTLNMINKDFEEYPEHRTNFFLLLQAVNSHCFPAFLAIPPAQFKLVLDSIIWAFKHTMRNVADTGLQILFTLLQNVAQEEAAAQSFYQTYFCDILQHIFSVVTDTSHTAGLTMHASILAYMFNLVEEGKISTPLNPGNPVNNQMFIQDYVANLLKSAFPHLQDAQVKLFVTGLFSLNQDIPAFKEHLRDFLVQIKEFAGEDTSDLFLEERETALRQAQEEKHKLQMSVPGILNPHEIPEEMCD
UniProt P28652: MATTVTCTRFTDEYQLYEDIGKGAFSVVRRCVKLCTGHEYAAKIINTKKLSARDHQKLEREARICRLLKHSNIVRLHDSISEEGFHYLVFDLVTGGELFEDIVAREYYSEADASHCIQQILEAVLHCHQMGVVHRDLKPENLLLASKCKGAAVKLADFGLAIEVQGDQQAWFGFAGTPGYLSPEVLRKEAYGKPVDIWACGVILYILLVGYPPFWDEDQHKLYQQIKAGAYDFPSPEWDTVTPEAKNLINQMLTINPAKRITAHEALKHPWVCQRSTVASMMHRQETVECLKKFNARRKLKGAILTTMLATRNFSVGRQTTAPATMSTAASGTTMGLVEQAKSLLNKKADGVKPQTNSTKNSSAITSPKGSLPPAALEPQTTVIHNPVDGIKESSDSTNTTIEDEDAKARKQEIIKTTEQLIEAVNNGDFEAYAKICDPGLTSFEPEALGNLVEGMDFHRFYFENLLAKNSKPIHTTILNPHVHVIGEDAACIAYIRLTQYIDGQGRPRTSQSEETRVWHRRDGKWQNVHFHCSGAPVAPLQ

Like-named read-outs stand apart in the source and are kept apart here. Results are given in words; binding and its absence hold for the method and conditions named. In cells and extracts the contact can be indirect. These calls come from enrichment with a bait or labelling near it, and not all partners need be listed. For part of these data: No binding means not detected with the bait.

The target of test [1] is RNA cap guanine-7 methyltransferase, RNMT (endogenous, mouse) (mouse (endogenous in brain and primary neurons)) (UniProt Q9D0L8). Description: affinity purification with mass spectrometry.
Test [2] has the same target. Description: affinity purification with mass spectrometry. The source holds these as a separate data set.

With “CRM1 (endogenous, mouse) (from UniProt Q6P5F9 1-1071)”, in test [1], the binding entry was “no binding”. For the substance “Ca2+/calmodulin-dependent protein kinase II beta, CaMKIIβ (endogenous, mouse) (from UniProt P28652 1-542) (enzyme)”, the binding result in test [1] and in test [2] was “binds” throughout.
